Experimental findings from publication PMC10040217 are described below.

Protein sequences, listed by entry. Tags and fused reporters are not part of them.
UniProt Q9VWE6: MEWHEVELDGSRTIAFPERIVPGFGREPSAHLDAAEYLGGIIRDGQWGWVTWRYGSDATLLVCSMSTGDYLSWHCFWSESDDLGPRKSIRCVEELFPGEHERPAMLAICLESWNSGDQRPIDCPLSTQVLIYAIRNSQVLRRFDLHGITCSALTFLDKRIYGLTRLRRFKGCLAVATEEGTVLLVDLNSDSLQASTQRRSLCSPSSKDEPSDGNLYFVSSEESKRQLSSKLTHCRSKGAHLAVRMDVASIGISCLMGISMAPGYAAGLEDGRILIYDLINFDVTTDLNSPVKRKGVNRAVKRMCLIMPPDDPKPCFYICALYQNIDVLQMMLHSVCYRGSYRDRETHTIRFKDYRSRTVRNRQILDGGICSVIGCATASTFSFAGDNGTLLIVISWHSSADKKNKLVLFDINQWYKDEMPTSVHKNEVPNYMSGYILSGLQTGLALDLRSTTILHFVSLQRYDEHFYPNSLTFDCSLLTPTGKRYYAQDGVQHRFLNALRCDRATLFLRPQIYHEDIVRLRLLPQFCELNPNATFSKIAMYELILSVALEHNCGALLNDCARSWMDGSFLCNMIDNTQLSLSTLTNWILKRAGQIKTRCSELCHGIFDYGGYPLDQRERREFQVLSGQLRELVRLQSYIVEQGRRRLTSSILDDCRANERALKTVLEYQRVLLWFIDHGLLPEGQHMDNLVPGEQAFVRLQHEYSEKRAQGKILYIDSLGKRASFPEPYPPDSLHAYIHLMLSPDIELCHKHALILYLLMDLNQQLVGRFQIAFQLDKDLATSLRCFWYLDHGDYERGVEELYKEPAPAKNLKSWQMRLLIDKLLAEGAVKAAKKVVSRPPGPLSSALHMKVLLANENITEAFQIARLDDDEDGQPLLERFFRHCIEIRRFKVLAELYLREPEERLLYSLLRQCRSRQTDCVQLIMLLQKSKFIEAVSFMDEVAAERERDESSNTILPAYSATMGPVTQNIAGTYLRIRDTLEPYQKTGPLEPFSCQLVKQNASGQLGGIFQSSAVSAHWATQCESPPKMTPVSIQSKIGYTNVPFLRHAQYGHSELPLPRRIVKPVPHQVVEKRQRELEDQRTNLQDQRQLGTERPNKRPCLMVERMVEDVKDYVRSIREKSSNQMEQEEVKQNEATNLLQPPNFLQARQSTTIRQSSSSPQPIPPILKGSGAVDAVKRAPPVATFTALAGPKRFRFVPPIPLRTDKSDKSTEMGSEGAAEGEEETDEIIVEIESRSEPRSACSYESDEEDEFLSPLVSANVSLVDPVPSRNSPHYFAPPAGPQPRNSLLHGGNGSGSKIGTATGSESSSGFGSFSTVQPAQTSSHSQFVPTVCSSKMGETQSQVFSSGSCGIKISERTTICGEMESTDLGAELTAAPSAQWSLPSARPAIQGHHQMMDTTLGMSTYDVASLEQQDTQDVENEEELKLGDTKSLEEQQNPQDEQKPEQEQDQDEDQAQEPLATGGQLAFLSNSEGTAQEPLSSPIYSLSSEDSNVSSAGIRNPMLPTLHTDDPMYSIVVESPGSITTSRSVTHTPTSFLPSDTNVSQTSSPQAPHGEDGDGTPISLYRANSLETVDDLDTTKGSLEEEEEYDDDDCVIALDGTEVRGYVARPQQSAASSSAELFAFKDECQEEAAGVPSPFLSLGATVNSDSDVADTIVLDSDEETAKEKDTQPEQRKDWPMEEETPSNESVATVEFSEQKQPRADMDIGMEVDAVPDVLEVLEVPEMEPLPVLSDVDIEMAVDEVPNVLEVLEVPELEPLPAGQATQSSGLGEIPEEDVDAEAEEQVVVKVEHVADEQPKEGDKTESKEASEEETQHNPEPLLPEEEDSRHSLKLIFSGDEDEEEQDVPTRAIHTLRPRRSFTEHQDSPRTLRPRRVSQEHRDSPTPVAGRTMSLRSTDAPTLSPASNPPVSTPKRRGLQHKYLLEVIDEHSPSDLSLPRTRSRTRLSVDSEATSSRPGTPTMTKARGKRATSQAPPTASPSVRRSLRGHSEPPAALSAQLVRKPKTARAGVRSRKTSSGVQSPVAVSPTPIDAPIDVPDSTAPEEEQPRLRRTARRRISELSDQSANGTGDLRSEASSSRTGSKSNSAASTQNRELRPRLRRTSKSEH

No constants are given. Whether binding was seen depends on the method and setting. In cells and extracts the contact can be indirect. Some binding calls cover weakened binding; strength is not graded here. Sequences can lack the tags named with a protein.

The target of this assay is T1, ORC2-GFP (Drosophila (endogenous in embryos)) (UniProt Q24168).
T1 sequence: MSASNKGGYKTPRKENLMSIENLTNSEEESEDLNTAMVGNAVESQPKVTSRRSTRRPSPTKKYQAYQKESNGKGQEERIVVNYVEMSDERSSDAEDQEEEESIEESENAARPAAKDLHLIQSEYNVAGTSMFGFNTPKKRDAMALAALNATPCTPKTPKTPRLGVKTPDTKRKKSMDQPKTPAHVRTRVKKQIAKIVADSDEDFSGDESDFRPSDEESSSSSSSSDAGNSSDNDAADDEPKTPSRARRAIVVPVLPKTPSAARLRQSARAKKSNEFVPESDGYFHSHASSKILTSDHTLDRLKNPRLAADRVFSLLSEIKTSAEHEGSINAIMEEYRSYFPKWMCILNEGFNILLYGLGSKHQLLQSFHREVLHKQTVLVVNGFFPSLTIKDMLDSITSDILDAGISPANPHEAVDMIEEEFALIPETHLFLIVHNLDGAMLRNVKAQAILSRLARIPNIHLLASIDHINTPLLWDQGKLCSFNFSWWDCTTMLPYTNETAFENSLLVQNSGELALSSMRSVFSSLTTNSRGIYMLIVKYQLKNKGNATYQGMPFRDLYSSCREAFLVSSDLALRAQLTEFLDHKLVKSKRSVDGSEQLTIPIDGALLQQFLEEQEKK
The assay is described as follows: co-IP; GFP-Trap IP of ORC2-GFP from benzonase-treated Drosophila embryo extracts, western blot with anti-ORC2 and anti-Elys; repeated at multiple time points through embryogenesis.

Regarding Elys (from UniProt Q9VWE6 1-2111), the binding entry is given as “binds”.
